# PubChem BioAssay AID743121, NCATS, 2013
# Test: 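Genes whose silencing strengthens cell killing by camptothecin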 (primary screen)
# Cell system: MDA-MB-231 cells, a human breast cancer line
# Reagent: single siRNA against human genes, 20 nM siRNA (0.8 pmol per well)
# Time to read-out: 120 h (drug added 48 h after transfection, read 72 h later)
# Conditions: camptothecin 20 nM (about EC30) for 72 h; vehicle 0.1% DMSO in parallel plates
# Measured: 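Cell viability by ATP luminescence (CellTiter-Glo) as % of non-targeting siRNA wells, and the log2 ratio of viability without drug over viability with camptothecin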
# Direction: log2 vehicle/camptothecin viability: higher = stronger sensitisation to camptothecin; viability with camptothecin: higher = more viable cells
# Rule for the call: 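Active genes have an RSA gene-level p-value below 0.001, computed from the ratios of their separate siRNAs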
# The deposit covers about 26,000 reagents; below is a random part of them. 167 of all reagents (0.63%) were called active. 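Calls are per gene from RSA p-values that are not deposited; an individual active-marked siRNA can sensitise only weakly.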 The numbers tell different reagents against one gene apart. Further read-outs or replicates are left out here. Reagent sequences are not shown.
gene symbol,siRNA no.,log2 vehicle/camptothecin viability,viability with camptothecin (% of control),call
GPR137B,1,-0.0536,115,inactive
GPR137B,2,-0.26,74.8,inactive
GPR137B,3,0.106,61.2,inactive
GPR137B,4,1.39,22,inactive
TRAPPC4,1,-0.294,67.6,inactive
TRAPPC4,2,0.204,87.3,inactive
TRAPPC4,3,-0.239,76.7,inactive
TRAPPC4,4,-0.303,28.7,inactive
HAND1,1,-0.174,58.6,inactive
HAND1,2,-0.408,64.9,inactive
HAND1,3,-0.583,84.8,inactive
HAND1,4,-0.0133,92.9,inactive
SETD5,1,-0.228,116,inactive
SETD5,2,-0.429,75.5,inactive
SETD5,3,-0.195,44.2,inactive
SETD5,4,-0.238,107,inactive
SETD5,5,0.0259,91.5,inactive
SETD5,6,-0.297,54.2,inactive
SETD5,7,0.253,52.5,inactive
SETD5,8,0.222,67.9,inactive
SETD5,9,-0.132,71,inactive
SETD5,10,-0.191,110,inactive
SETD5,11,-0.0533,72.1,inactive
SETD5,12,-0.0903,46.6,inactive
OR5V1,1,-0.276,80.5,inactive
OR5V1,2,-0.108,100,inactive
OR5V1,3,-0.347,78,inactive
OR5V1,4,-0.452,95.7,inactive
ATP1A2,1,0.132,37.1,inactive
ATP1A2,2,0.0328,84.3,inactive
ATP1A2,3,-0.402,71.8,inactive
ATP1A2,4,-0.233,75.8,inactive
ATF2,1,0.231,60.6,inactive
ATF2,2,-0.104,108,inactive
ATF2,3,-0.0862,102,inactive
NCAPG,1,-0.302,76.7,inactive
NCAPG,2,-0.275,42.7,inactive
NCAPG,3,0.236,19.1,inactive
NCAPG,4,-0.134,87.3,inactive
TGM6,1,-0.275,55.6,inactive
TGM6,2,-0.00385,26.7,inactive
TGM6,3,-0.0959,69.5,inactive
TGM6,4,0.0204,58.7,inactive
RASSF1,1,-0.243,48.1,inactive
RASSF1,2,-0.244,49.8,inactive
RASSF1,3,0.13,33,inactive
RASSF1,4,-0.522,84.9,inactive
CENPM,1,0.588,22.2,inactive
CENPM,2,-0.0432,85.5,inactive
CENPM,3,-0.0857,93.6,inactive
CENPM,4,-0.217,101,inactive
APOA1,1,-0.158,108,inactive
APOA1,2,-0.0886,90.6,inactive
APOA1,3,0.462,17.8,inactive
APOA1,4,0.0698,50.7,inactive
LRRC40,1,-0.0107,83,inactive
LRRC40,2,0.167,80.1,inactive
LRRC40,3,0.0787,104,inactive
RAB44,1,-0.286,79.3,inactive
COPS5,1,0.166,66.3,inactive
COPS5,2,-0.00515,83,inactive
COPS5,3,0.43,37.8,inactive
COPS5,4,1.53,27,inactive
FBXO3,1,0.0294,21.9,inactive
FBXO3,2,0.128,35.2,inactive
FBXO3,3,-0.284,69.9,inactive
FBXO3,4,0.0778,69,inactive
NPAS3,1,0.222,75.3,inactive
NPAS3,2,0.261,57.5,inactive
NPAS3,3,-0.0806,86,inactive
NPAS3,4,-0.0365,47,inactive

4 entries from above, reformatted:
gene symbol | siRNA no. | log2 vehicle/camptothecin viability | viability with camptothecin (% of control) | call
COPS5 | 3 | 0.43 | 37.8 | inactive
COPS5 | 4 | 1.53 | 27 | inactive
FBXO3 | 1 | 0.0294 | 21.9 | inactive
FBXO3 | 2 | 0.128 | 35.2 | inactive
